Data reported in publication PMC2837404, “The Human Polyoma JC Virus Agnoprotein Acts as a Viroporin” (PLoS Pathogens, 2010).
These are yes or no findings as the source states them, for the method shown. In cells and extracts the contact can be indirect. Some binding calls cover weakened binding; strength is not graded here. Where a sequence is shown, tags or fusion partners need not be part of it.

Biological target: JCV agnoprotein, epitope-tagged (Myc-tagged agnoprotein and Flag-tagged agnoprotein) (JC virus (JCV)) (UniProt P03086)
Experiment: co-IP; 293T cells transfected with Myc-agnoprotein/Flag-agnoprotein, 72 h; lysed in TNE buffer (10 mM Tris-HCl pH 7.5, 150 mM NaCl, 5 mM EDTA, 10% glycerol, 1% Triton X-100); immunoprecipitation with anti-Flag antibody on protein G-Sepharose, 4 h at 4°C; immunoblot

B1: JCV agnoprotein expressed in JCV-infected SVG-A cells (natural protein)
chain: MVLRQLSRKASVKVSKTWSGTKKRAQRILIFLLEFLLDFCTGEDSVDGKKRQRHSGLTEQTYSALPEPKAT
notes: JC virus (JCV) agnoprotein made from the viral genome in infected cells; monomer about 8 kDa; The virus was prepared from JCI cells or JC virus-infected SVG-A cells; source: SVG-A cells infected with JCV for 1 week
binding: binds
